Results are given in words; binding and its absence hold for the method and conditions named. Binding seen in cells or lysates may run through a third protein. Some entries that bind do so weakly or less than the wild type.
Experiments:
[1] = biological target: protein-kinase-C-related kinase 1 (PRK1/PKN1) (human (endogenous in PC-3M-luc2)) (UniProt Q16512); assay: co-IP; co-immunoprecipitation of endogenous PRK1 and SPAG9 from PC-3M-luc2 cells, Western blot
[2] = biological target: protein-kinase-C-related kinase 1 (PRK1/PKN1) (human (endogenous in PC-3M-luc2)) (UniProt Q16512); assay: co-sedimentation; whole cell lysate on a 40-10 % sucrose gradient (50 mM Tris, 100 mM NaCl), 185.000 g for 16 hours, 17 fractions immunoblotted

- binding [1]: binds
- binding [2]: binds
B1: sperm-associated antigen 9 (SPAG9/JIP4) (protein, UniProt O60271-1 1-1321)
chain: MELEDGVVYQEEPGGSGAVMSERVSGLAGSIYREFERLIGRYDEEVVKELMPLVVAVLENLDSVFAQDQEHQVELELLRDDNEQLITQYEREKALRKHAEEKFIEFEDSQEQEKKDLQTRVESLESQTRQLELKAKNYADQISRLEEREAELKKEYNALHQRHTEMIHNYMEHLERTKLHQLSGSDQLESTAHSRIRKERPISLGIFPLPAGDGLLTPDAQKGGETPGSEQWKFQELSQPRSHTSLKVSNSPEPQKAVEQEDELSDVSQGGSKATTPASTANSDVATIPTDTPLKEENEGFVKVTDAPNKSEISKHIEVQVAQETRNVSTGSAENEEKSEVQAIIESTPELDMDKDLSGYKGSSTPTKGIENKAFDRNTESLFEELSSAGSGLIGDVDEGADLLGMGREVENLILENTQLLETKNALNIVKNDLIAKVDELTCEKDVLQGELEAVKQAKLKLEEKNRELEEELRKARAEAEDARQKAKDDDDSDIPTAQRKRFTRVEMARVLMERNQYKERLMELQEAVRWTEMIRASRENPAMQEKKRSSIWQFFSRLFSSSSNTTKKPEPPVNLKYNAPTSHVTPSVKKRSSTLSQLPGDKSKAFDFLSEETEASLASRREQKREQYRQVKAHVQKEDGRVQAFGWSLPQKYKQVTNGQGENKMKNLPVPVYLRPLDEKDTSMKLWCAVGVNLSGGKTRDGGSVVGASVFYKDVAGLDTEGSKQRSASQSSLDKLDQELKEQQKELKNQEELSSLVWICTSTHSATKVLIIDAVQPGNILDSFTVCNSHVLCIASVPGARETDYPAGEDLSESGQVDKASLCGSMTSNSSAETDSLLGGITVVGCSAEGVTGAATSPSTNGASPVMDKPPEMEAENSEVDENVPTAEEATEATEGNAGSAEDTVDISQTGVYTEHVFTDPLGVQIPEDLSPVYQSSNDSDAYKDQISVLPNEQDLVREEAQKMSSLLPTMWLGAQNGCLYVHSSVAQWRKCLHSIKLKDSILSIVHVKGIVLVALADGTLAIFHRGVDGQWDLSNYHLLDLGRPHHSIRCMTVVHDKVWCGYRNKIYVVQPKAMKIEKSFDAHPRKESQVRQLAWVGDGVWVSIRLDSTLRLYHAHTYQHLQDVDIEPYVSKMLGTGKLGFSFVRITALMVSCNRLWVGTGNGVIISIPLTETNKTSGVPGNRPGSVIRVYGDENSDKVTPGTFIPYCSMAHAQLCFHGHRDAVKFFVAVPGQVISPQSSSSGTDLTGDKAGPSAQEPGSQTPLKSMLVISGGEGYIDFRMGDEGGESELLGEDLPLEPSVTKAERSHLIVWQVMYGNE

— article PMC4350344
